From patent publication US20250388575A1, “HETEROBIFUNCTIONAL COMPOUNDS AND METHODS OF TREATING DISEASE” (Halda Therapeutics OpCo, Inc., priority 2022, published 2025)
The structures given here were assigned with low confidence; some may be wrong.

The chains behind the UniProt entries cited, without tags or fusion partners. Residues count along the entry.
UniProt P06401, 679-913 limits assumed: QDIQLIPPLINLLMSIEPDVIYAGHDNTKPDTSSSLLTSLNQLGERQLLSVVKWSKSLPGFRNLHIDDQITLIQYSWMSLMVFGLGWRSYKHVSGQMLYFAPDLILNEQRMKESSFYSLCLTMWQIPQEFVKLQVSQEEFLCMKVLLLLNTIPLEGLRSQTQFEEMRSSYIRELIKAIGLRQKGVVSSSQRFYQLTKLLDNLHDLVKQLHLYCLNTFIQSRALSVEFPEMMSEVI

Legend:
[1] = test system: T-Rex 293 cell line SC3 cells having increased expression of androgen receptor protein; assay: Cellular growth inhibition, T-Rex 293 SC3 cells with increased androgen receptor expression (doxycycline), CellTiter-Glo; conditions: T-Rex 293 SC3 cells with increased androgen receptor expression (exposed to 10 ng/mL doxycycline), 72 hours
Procedure: (§1) The following types of cells were prepared for this experiment: (i) a T-Rex 293 cell line having increased expression of androgen receptor protein due to exposure to doxycycline and (ii) a T-Rex 293 cell line lacking increased expression of androgen receptor protein. Ability of the test compounds to inhibit proliferation of the foregoing cell types was evaluated according to the procedures set forth below.
(§2) The doxycycline-inducible androgen receptor protein expressing cell line was established using the following protocol: T-Rex 293 cells were purchased from Invitrogen (Cat #R71007) and transfected using Lipofectamine 2000 with the wild-type androgen receptor protein sequence cloned into the pcDNA4/TO vector. Transfected cells were selected using 400 μg/mL Zeocin (Invitrogen Cat #R25001). Following selection, single clones were raised and maintained in Dulbecco's Modified Eagle Medium (DMEM) supplemented with 10% w/w Tetracycline-free fetal bovine serum (FBS) and 250 μg/mL Zeocin. Clones were analyzed for expression of androgen receptor protein in the presence and absence of 10 ng/ml doxycycline (Sigma Cat #D9891), and a single doxycycline-inducible clone (hereinafter “SC3”) was selected for use in downstream assays.
(§3) The SC3 cells were seeded on poly-D-lysine coated, black clear-bottom 384-well plates at 2500/well, in 25 μL Phenol Red Free Dulbecco's Modified Eagle Medium (DMEM) supplemented with 10% w/w charcoal-dextran treated fetal bovine serum (FBS) and 1% w/w pen-strep, with or without 10 ng/mL doxycycline. Pen-Strep is a commercially available mixture of penicillin G and streptomycin, which is used in mammalian cell culture media to prevent bacterial contamination. […]
(§4) At the end of the treatment duration, cell viability was quantified with CellTiter-Glo 2.0 reagent (Promega Cat #G9243). […] Following incubation, the plates were spun at 3000×g for 30 seconds, then sealed with an optical adhesive cover, and luminescence readings were measured with an EnVision Plate Reader.
(§5) Data was normalized using zero luminescence for baseline. […]

[2] = test system: T-Rex 293 cell line SC3 cells lacking increased expression of androgen receptor protein; assay: Cellular growth inhibition, T-Rex 293 SC3 cells lacking increased androgen receptor expression (no doxycycline), CellTiter-Glo; conditions: T-Rex 293 SC3 cells lacking increased androgen receptor expression (not exposed to doxycycline), 72 hours
Procedure: as §1, §2, §3, §4, §5

VCaP cells = assay: Cellular growth inhibition assay for VCaP cells, CellTiter-Glo; conditions: 72 hours
Procedure: VCaP cells were purchased from American Type Cell Culture (ATCC Cat #CRL2876) and then seeded on poly-D-lysine coated, black clear-bottom 384-well plates at 5000/well in 25 μL Dulbecco's Modified Eagle Medium (DMEM) supplemented with 10% w/w Fetal bovine serum (FBS) and 1% w/w Pen-Strep. Pen-Strep is a commercially available mixture of penicillin G and streptomycin, which is used in mammalian cell culture media to prevent bacterial contamination. Dulbecco's Modified Eagle Medium (DMEM) supplemented with 10% w/w fetal bovine serum (FBS) and 1% w/w Pen-Strep is herein referred to as Treatment Medium. Following seeding of cells in the plates, the plates were spun at 300×g for 30 seconds, then equilibrated to room temperature for 30 minutes, and then deposited in a humidified tissue culture incubator maintained at 37° C. with 5% CO2.
At 24 hours after seeding of the cells, dilutions of test compound were prepared in DMSO and dissolved in Treatment Medium, to achieve a final DMSO concentration of 0.5% w/w, thereby providing the Test Compound Solution. A 25 μL aliquot of the Test Compound Solution was added to cells in the well plates. An equal volume of a solution containing DMSO and Treatment Medium was used as a negative control. Following treatment of cells with Test Compound Solution or said equal volume of a solution containing DMSO and Treatment Medium, the plates were spun at 300×g for 30 seconds, and then left in an incubator for 72 hours.
as §4, with “#G9243). For this purpose, plates were equilibrated to room temperature for 30 minutes, and then 25 μL of CellTiter-Glo 2.0 reagent was added to cells in the plate wells.” for “#G9243).”
as §5

[3] = biological target: progesterone receptor ligand binding domain (LBD) (Homo sapiens (Human), UniProt P06401); assay: FP assay for binding affinity to progesterone receptor (PolarScreen Progesterone Receptor Competitor Assay); conditions: GST-tagged PR LBD, Fluormone tracer, fluorescence polarization, 2 hours at room temperature
Procedure: Compounds were tested using the PolarScreen™ Progesterone Receptor Competitor Assay Kit (Life Technologies Cat #A15905 or a15906), as per the manufacturer's instructions. Briefly, GST-tagged PR LBD, Fluormone tracer, and compound were mixed and incubated for 2 hours at room temperature in the dark. Following incubation, the plates were spun at 3000×g for 30 seconds, then sealed with an optical adhesive cover, and fluorescence polarization was measured using appropriate excitation and emission filters with an EnVision Plate Reader (Perkin Elmer). Compound concentration vs. mP value were plotted in Prism (GraphPad). A four-parameter non-linear regression curve fit was applied to dose-response data to determine the half-maximal inhibitory concentration (IC50) for each test compound.

T47D cells = assay: Cellular growth inhibition assay for T47D cells, CellTiter-Glo; conditions: 72 hours treatment, CellTiter-Glo 2.0
Procedure: T47D cells were purchased from American Type Cell Culture (ATCC Cat #HTB-133) and then seeded on poly-D-lysine coated, black clear-bottom 384-well plates at 3000/well in 25 μL Dulbecco's Modified Eagle Medium (DMEM) supplemented with 10% w/w Fetal bovine serum (FBS), 0.2 units/mL recombinant human insulin (Gibco Cat #12585014), and 1% w/w Pen-Strep. Pen-Strep is a commercially available mixture of penicillin G and streptomycin, which is used in mammalian cell culture media to prevent bacterial contamination. Dulbecco's Modified Eagle Medium (DMEM) supplemented with 10% w/w fetal bovine serum (FBS), 0.2 units/mL recombinant human insulin, and 1% w/w Pen-Strep is herein referred to as Treatment Medium. Following seeding of cells in the plates, the plates were spun at 300×g for 30 seconds, then equilibrated to room temperature for 30 minutes, and then deposited in a humidified tissue culture incubator maintained at 37° C. with 5% CO2. […]
as §4, with “Reader (Perkin Elmer).” for “Reader.”
as §5

Structure (SMILES)	GI50 [1] [nM]	GI50 [2] [nM]	GI50 (VCaP cells) [nM]	IC50 [3] [nM]	GI50 (T47D cells) [nM]
Cn1cc(-c2cc(C(C)(C)O)ccc2O[C@H]2C(C)(C)[C@H](N(C)CC3CCN(c4ccc(C(=O)N[C@H]5CC[C@H](Oc6ccc(C#N)c(Cl)c6)CC5)nn4)CC3)C2(C)C)c2cc[nH]c2c1=O	< 500	> 3000	< 500	–	–
Cn1cc(-c2cc(NC(=O)N3CCN(c4ccc(C(=O)N[C@H]5CC[C@H](Oc6ccc(C#N)c(Cl)c6)CC5)nn4)CC3)ccc2Oc2ccc(F)cc2F)c2cc[nH]c2c1=O	> 3000	< 500	> 3000	< 50	–
Cn1cc(-c2cc(NC(=O)CCCCN3CCN(c4ccc(C(=O)N[C@H]5CC[C@H](Oc6ccc(C#N)c(Cl)c6)CC5)nn4)CC3)ccc2Oc2ccc(F)cc2F)c2cc[nH]c2c1=O	< 500	> 3000	> 3000	< 50	500 to 1500
